Laboratory results as given in article PMC8389195, “Demyristoylation of the Cytoplasmic Redox Protein Trx-h2 Is Critical for Inducing a Rapid Cold Stress Response in Plants”.
Substitutions are numbered along the chain they refer to. These are yes or no findings as the source states them, for the method shown. Binding seen in cells or lysates may run through a third protein. Some entries that bind do so weakly or less than the wild type.

Amino acid sequences for entries named in this document (tags omitted).
UniProt P93835: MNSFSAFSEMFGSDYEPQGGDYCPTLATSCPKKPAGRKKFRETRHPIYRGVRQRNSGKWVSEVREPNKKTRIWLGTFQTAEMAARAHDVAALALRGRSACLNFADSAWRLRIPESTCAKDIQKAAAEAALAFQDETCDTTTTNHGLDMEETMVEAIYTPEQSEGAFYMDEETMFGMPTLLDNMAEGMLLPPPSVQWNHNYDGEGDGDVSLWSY

What was measured:
[1] = molecular target: T1, Trx-h2-YN (Arabidopsis thaliana) (UniProt Q38879); assay: condition: only leaves kept at 22 °C (no cold treatment); split reporter; as a3, leaves incubated at 22 °C without cold treatment
T1 sequence: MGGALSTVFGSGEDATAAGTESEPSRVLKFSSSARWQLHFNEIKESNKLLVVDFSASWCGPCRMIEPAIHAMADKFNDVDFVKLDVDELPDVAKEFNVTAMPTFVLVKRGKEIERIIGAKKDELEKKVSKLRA

[2] = molecular target: T1, Trx-h2-YN (Arabidopsis thaliana); assay: split reporter; BiFC: YN and YC fusions co-expressed in N. benthamiana leaves by agroinfiltration; 2 days, then 4 °C or 22 °C for 6 h; confocal microscopy with NLS-RFP as nuclear marker
[3] = molecular target: T2, Trx-h2(G/A)-YN (Arabidopsis thaliana) (UniProt Q38879); assay: as above
T2 sequence: T1 sequence with G2A

Substance: YC-CBF1 (from UniProt P93835 1-213)
- binding [1]: no binding
- binding [2]: binds
- binding [3]: binds
